Some of the results follow. Shown are side measurements of this screen, not its main read-out; they come without a call. Most of these compounds were active or inconclusive in the main read-out, so they are no random draw. Words in brackets tell the shape of the fitted curve; partial curves, single points and poor fits give uncertain potencies.
Test: qHTS Assay for Lipid Storage Modulators in Drosophila S3 Cells;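 for cell number change: cells counted by Cell Tracker Red CMTPX staining in the red channel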
Settings: BODIPY lipid droplet fluorescence, 18-24 h; for cell number change: measured here: cell count max response, cells fed with added oleic acid
In short: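 Drosophila S3 cells got compounds at several concentrations plus oleic acid (400 uM solution). Laser-scanning cytometry with 488 nm excitation read lipid droplets at 500-530 nm and cells at 575-640 nm. Percent activity was relative to 20 uM Triacsin C.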

[1] = measured here: cell number channel AC50, cells fed with added oleic acid
[2] = measured here: lipid fluorescence (Fed channel) AC50, cells fed with added oleic acid

Row | SMILES | cell number change [%] | AC50 [1] | AC50 [2]
1 | O=C(CNC(=O)c1ccc(F)cc1)NCc1ccc(S(=O)(=O)N2CCOCC2)cc1 | 75 | 29.1 µM [rising, single point] | 
2 | C=CCNC(=S)N(Cc1ccccc1)Cc1ccc(F)cc1 | 12.5 |  | 
3 | CC1CC(=O)c2cnc(NCc3ccco3)nc2C1 (stereo not given) | 15.8 |  | 9.2 µM [rising, partial curve]
4 | COc1ccc2nc(NCc3cccnc3)sc2c1 | -6.88 |  | 
5 | COc1ccccc1C(=O)Nc1ccccn1 |  |  | 6.51 µM [rising, single point]
6 | O=C(O)/C=C/C(=O)Nc1ccc(OC(F)F)cc1 |  |  | 6.51 µM [falling, single point]
7 | COc1ccc(NC(=O)NC23CC4(C)CC(C)(CC(C)(C4)C2)C3)cc1OC | -15.7 |  | 29.1 µM [falling, single point]
8 | N#Cc1cccc(NCC(=O)Nc2cccc(S(=O)(=O)N3CCCCC3)c2)c1 | 2.32 |  | 4.61 µM [rising, full curve, poor fit]
9 | CCCCCCCCn1cnc2c(N)c(C)c(C)cc21 | -31.9 | 29.1 µM [falling, single point] | 
10 | CCCn1c(SCC(=O)N2CCCC(C)C2)nnc1-c1ccccn1 (stereo not given) | -8.65 |  | 6.51 µM [falling, partial curve]
11 | COc1ccccc1Cc1nc2ccccc2n1S(=O)(=O)c1ccc(Cl)cc1 | 1.48 |  | 1.3 µM [rising, full curve]
12 | CCn1c2ccccc2c2cc(NC(=O)CSc3nnc(-c4cccc(C)c4)o3)ccc21 | 13.6 |  | 6.51 µM [rising, single point]
13 | COc1cccc(NC2=NC3(CCCCC3)N=C(N)N2)c1 |  |  | 18.4 µM [falling, single point]
14 | O=C(c1ccco1)N1CCN(CC(O)COc2ccc3oc4ccccc4c3c2)CC1 (stereo not given) | -32.5 |  | 16.4 µM [rising, partial curve, poor fit]
15 | O=C(CSC(=S)N1CCCCC1)c1ccccc1 | 6.26 |  | 6.51 µM [rising, full curve]
16 | Cc1csc(NC(=O)C2CCN(S(=O)(=O)c3ccc4c(c3)oc(=O)n4C)CC2)n1 | 7.71 |  | 
17 | COc1ccc(CCNC(=O)CC2SC(N)=NC2=O)cc1OC (stereo not given) | -0.621 |  | 0.651 µM [falling, full curve, poor fit]
18 | Cc1ccc(S(=O)(=O)N2CCCN(C(=O)c3ccc(-n4nccc4C)cc3)CC2)cc1 | 68.5 | 16.4 µM [rising, single point] | 
19 | Cc1ccc2c(CSc3nnc4ccccn34)cc(=O)oc2c1C | 22.5 |  | 16.4 µM [rising, partial curve, poor fit]
20 | O=C(N/N=C/C=C/c1ccccc1)c1cc2c(ccc3ccccc32)o1 | -24.1 |  | 20.6 µM [falling, single point]
21 | O=C(CSc1nc(=O)n(CCCN2CCOCC2)c2c1CCCC2)Nc1ccc(Cl)cc1 |  | 0.58 µM [rising, single point] | 

As entered above:
COc1ccc2nc(NCc3cccnc3)sc2c1 | cell number change [%]: -6.88
COc1ccccc1Cc1nc2ccccc2n1S(=O)(=O)c1ccc(Cl)cc1 | AC50 [2]: 1.3 µM [rising, full curve]
CCCn1c(SCC(=O)N2CCCC(C)C2)nnc1-c1ccccn1 (stereo not given) | AC50 [2]: 6.51 µM [falling, partial curve]

Next part

Row | SMILES | cell number change [%] | AC50 [1] | AC50 [2]
22 | CC(C)Oc1ccc(CCC(=O)NNC(=S)NCc2ccccc2)cc1 | 16.1 | 2.59 µM [rising, single point] | 1.84 µM [rising, partial curve]
23 | COC(=O)c1c(NC(=O)c2ccn(C)n2)sc2c1CCC2 | -18.6 |  | 31.6 µM [falling, partial curve]
24 | COc1cc(NC(=S)Nc2ccc3c(c2)OCCO3)cc(OC)c1OC |  |  | 29.1 µM [rising, single point]
25 | O=C(CN(CCc1ccccc1)S(=O)(=O)c1ccc(Cl)cc1)N/N=C/c1ccccc1C(=O)O | 46.6 | 11.6 µM [rising, partial curve] | 
26 | O=C(Nc1cccc(C(=O)N2CCCCCC2)c1)c1ccco1 | -31.8 | 29.1 µM [falling, partial curve, poor fit] | 13 µM [falling, partial curve]
27 | COC(=O)/C=C1\SC(=Nc2ccc(OC)cc2)NC1=O | 13.4 | 1.64 µM [rising, partial curve, poor fit] | 
28 | Cc1ccnc(NS(=O)(=O)c2ccc(NC(=O)c3ccc(S(=O)(=O)N(C)C)cc3)cc2)n1 | -57.7 | 1.64 µM [falling, partial curve, poor fit] | 20.6 µM [falling, single point]
29 | Nc1nnc(SCC(=O)Nc2ccc(N3CCOCC3)c(Cl)c2)s1 | -15.5 |  | 1.3 µM [falling, full curve]
30 | COc1ccc(Cn2nnnc2C(c2ccc(F)cc2)N2CCN(C3CCCC3)CC2)cc1 (stereo not given) | 1.89 |  | 4.11 µM [falling, single point]
31 | Cc1ccc(C(=O)/C=C/NCc2ccc(F)cc2)cc1 | 11 |  | 0.58 µM [rising, single point]
32 | O=C(NCc1cccc(C(F)(F)F)c1)C1CCCN(c2cnccn2)C1 (stereo not given) | 3.58 |  | 1.84 µM [rising, partial curve, poor fit]
33 | COc1ccccc1NS(=O)(=O)c1cccc(NC(=O)Cc2cccs2)c1 | 12.3 |  | 14.6 µM [rising, single point]
34 | Cc1ccc(C)c(CSc2nnc([C@@H](N)C(C)C)o2)c1 | 41.5 | 2.06 µM [rising, full curve] | 0.651 µM [rising, single point]
35 | C=CCN(N=Nc1cccc([N+](=O)[O-])c1)c1cccc([N+](=O)[O-])c1 | 81.3 |  | 1.64 µM [rising, partial curve]
36 | CCOc1ccc(CCNC(=O)CSc2nn(-c3ccc(C)c(Cl)c3)c(=S)s2)cc1OCC | -20.6 |  | 8.2 µM [falling, partial curve]
37 | O=C(O)[C@]1(S(=O)(=O)c2ccccc2)C[C@@H]2ON=C(c3cccc(Br)c3)[C@@H]2C1 | 32.4 | 32.6 µM [rising, partial curve, poor fit] | 6.51 µM [falling, partial curve]
38 | O=C(Nc1ccccc1)c1cccc(N2C(=O)CCC2=O)c1 | 0.809 |  | 6.51 µM [falling, single point]
39 | O=C(NC1CCCCC1)N(Cc1ccc(F)cc1)Cc1nc2ccccc2c(=O)[nH]1 | -29.3 |  | 0.058 µM [rising, full curve, poor fit]
40 | CCOC(=O)c1c(C)c(-c2ccccc2)n(CC(=O)NCCC(C)C)c1C |  |  | 1.3 µM [rising, partial curve]
41 | CCN(CC)S(=O)(=O)c1ccc(/C=C/C(=O)Nc2cccc(F)c2)cc1 |  |  | 29.1 µM [rising, single point]
42 | O=C(COc1ccc(Cl)cc1)NNC(=S)NCc1ccccc1 | 2.63 |  | 5.62 µM [falling, single point]

Two of these compounds in a different format:
Row	SMILES	cell number change [%]	AC50 [1]	AC50 [2]
10	CCCn1c(SCC(=O)N2CCCC(C)C2)nnc1-c1ccccn1 (stereo not given)	-8.65		6.51 µM [falling, partial curve]
33	COc1ccccc1NS(=O)(=O)c1cccc(NC(=O)Cc2cccs2)c1	12.3		14.6 µM [rising, single point]

Following part

Row | SMILES | cell number change [%] | AC50 [1] | AC50 [2]
43 | Cc1[nH]n(-c2ccccc2)c(=O)c1/C=C1/C=c2ccccc2=N1 | -35.6 |  | 29.1 µM [falling, partial curve]
44 | N=C(c1ccc([N+](=O)[O-])cc1)N1CCCCCC1 | 31 |  | 
45 | Cc1nn(Cc2ccc(Cl)cc2Cl)c(C)c1NC(=O)c1sc2ccccc2c1Cl | -50 |  | 20.6 µM [falling, single point]
46 | Oc1ccc(-c2cccc(-c3ccc(O)cc3)c2)cc1 | -20.4 |  | 29.1 µM [falling, single point]
47 | O=C(Nc1ccc(C(=O)NCc2ccccc2Cl)cc1)C1=CSCCO1 | 12.5 |  | 16.4 µM [rising, single point]
48 | CC1CCN(C(=O)C2CCN(c3ncnc4c3nc3n4CCCCC3)CC2)CC1 |  |  | 2.91 µM [falling, full curve]
49 | COC(=O)c1cc(OC)c(OC)cc1NC(=O)c1ccc(C)o1 |  |  | 0.259 µM [rising, full curve]
50 | CCCCCC(=O)O/N=C(\C)c1ccn(S(=O)(=O)c2ccccc2)c1 | -28.1 |  | 29.1 µM [falling, single point]
51 | Cc1c(Cl)c([N+](=O)[O-])nn1CC(=O)NCCCN1CCOCC1 |  |  | 1.84 µM [falling, partial curve]
52 | CCCCN1CCc2c(c3ccccc3n2Cc2ccccc2)C1 | -33.1 | 29.1 µM [falling, single point] | 29.1 µM [falling, single point]
53 | CCc1nnc(NC(=O)CN2C(=O)/C(=C/c3ccc(OC)c(OC)c3)SC2=S)s1 | 43.2 | 29.1 µM [rising, single point] | 6.51 µM [falling, single point]
54 | Cc1ccc(N(CC(=O)NC2CCCC2)C(=O)Cn2nnc(-c3ccccc3F)n2)cc1 | -21.1 |  | 5.62 µM [falling, single point]
55 | Cc1nn(C(C)C(=O)NCCN2CCCCCC2)c(=O)c2nn(-c3ccccc3)c(C)c12 (stereo not given) | 33.6 | 18.4 µM [rising, single point] | 
56 | COc1ccc(OC)c(-c2c[n+](=O)c3c(n2[O-])CCCC3)c1 | 1.43 |  | 
57 | C=CCN(CC=C)CC(O)Cn1c2ccccc2c2ccccc21 (stereo not given) | -93.9 | 18.4 µM [falling, partial curve] | 
58 | Cc1ccc(C(=O)N/C(=C/c2ccc(Cl)cc2)C(=O)NCC2CCCO2)cc1 (stereo not given) | 4.95 |  | 29.1 µM [rising, single point]
59 | Nc1nonc1-n1nncc1-c1ccccc1 | 14.1 | 0.82 µM [rising, full curve, poor fit] | 
60 | CC1CN(C(=O)Cc2ccc(-c3ccccc3)cc2)CC(C)O1 (stereo not given) | 38.4 | 0.731 µM [rising, partial curve] | 23.1 µM [falling, single point]
61 | COC(=O)c1ccccc1NC(=O)NC1CCC(C)CC1 (stereo not given) | 20 |  | 0.184 µM [rising, full curve, poor fit]
